# These are yes or no findings as the source states them, for the method shown. Some entries that bind do so weakly or less than the wild type.
# Amino acid sequences for entries named in this document (tags omitted). Residues count along the entry.
# UniProt P28307, residues 21-151: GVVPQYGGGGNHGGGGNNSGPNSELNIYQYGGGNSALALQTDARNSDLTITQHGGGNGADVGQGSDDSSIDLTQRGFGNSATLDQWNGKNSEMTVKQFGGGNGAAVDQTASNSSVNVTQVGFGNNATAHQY
# B1: vasoactive intestinal peptide (peptide, UniProt P01282 125-152)
# peptide: HSDAVFTDNYTRLRKQMAVKKYLNSILN
# Columns and labels:
# [1] = target: recombinant CsgA-His6 (E. coli) (UniProt P28307); test: SPR; Biacore 3000; monomeric CsgA immobilised on a CM5 chip by amine coupling to 2000 response units; running buffer HBS-EP; 0.1 µM peptide injected at 20 µl/min for 3 min; both purified
# [2] = target: recombinant CsgA-His6 (E. coli) (UniProt P28307); test: SPR; Biacore 3000; polymeric CsgA immobilised on a CM5 chip by amine coupling to 7000 response units; running buffer HBS-EP; 0.1 µM peptide injected at 20 µl/min for 3 min; both purified
binder,measurement,setting,value
B1,binding,[1],binds weakly
same,binding,[2],binds weakly
